Test results as given in publication doi:10.1101/2025.02.09.636592.
Results are given in words; binding and its absence hold for the method and conditions named. Binding seen in cells or lysates may run through a third protein. Some entries that bind do so weakly or less than the wild type. Where a sequence is shown, tags or fusion partners need not be part of it.

Biological target: T1, endogenous thioredoxin (TRX) of HEK293T cells (human (endogenous in HEK293T)) (UniProt P10599)
T1 sequence: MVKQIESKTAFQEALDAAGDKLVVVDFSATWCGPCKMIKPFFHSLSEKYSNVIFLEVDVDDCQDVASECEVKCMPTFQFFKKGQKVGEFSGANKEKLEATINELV
Experiment: co-IP

B1: C1ORF116-V5 transiently expressed in HEK293T cells (protein, UniProt Q9BW04 1-601)
chain: MPERELWPAGTGSEPVTRVGSCDSMMSSTSTRSGSSDSSYDFLSTEEKECLLFLEETIGSLDTEADSGLSTDESEPATTPRGFRALPITQPTPRGGPEETITQQGRTPRTVTESSSSHPPEPQGLGLRSGSYSLPRNIHIARSQNFRKSTTQASSHNPGEPGRLAPEPEKEQVSQSSQPRQAPASPQEAALDLDVVLIPPPEAFRDTQPEQCREASLPEGPGQQGHTPQLHTPSSSQEREQTPSEAMSQKAKETVSTRYTQPQPPPAGLPQNARAEDAPLSSGEDPNSRLAPLTTPKPRKLPPNIVLKSSRSSFHSDPQHWLSRHTEAAPGDSGLISCSLQEQRKARKEALEKLGLPQDQDEPGLHLSKPTSSIRPKETRAQHLSPAPGLAQPAAPAQASAAIPAAGKALAQAPAPAPGPAQGPLPMKSPAPGNVAASKSMPISIPKAPRANSALTPPKPESGLTLQESNTPGLRQMNFKSNTLERSGVGLSSYLSTEKDASPKTSTSLGKGSFLDKISPSVLRNSRPRPASLGTGKDFAGIQVGKLADLEQEQSSKRLSYQGQSRDKLPRPPCVSVKISPKGVPNEHRREALKKLGLLKE
- binding: binds
